From publication PMC7822688, “W196 and the β-Hairpin Motif Modulate the Redox Switch of Conformation and the Biomolecular Interaction Network of the Apoptosis-Inducing Factor” (Oxidative Medicine and Cellular Longevity, 2021) come the findings set out here.

This data set relates to dsDNA. Briefly: ITC binary interaction with dsDNA. The settings on record: oxidized hAIF∆1-101 titrated with 15-bp dsDNA, 25°C, pH 7.4. It counts as binding. The method, then:
ITC assays were carried out using an Auto-iTC200 (MicroCal, Malvern-Panalytical, Malvern, UK) thermostated at 25 °C. Typically, […] protein partner and dsDNA samples—prepared as described below—were used to titrate ~10 μM hAIF∆1-101 variants. All solutions were degassed at 15°C for 1 min before each assay. A sequence of 2 μL injections of titrant solution every 150 s was programmed, and the stirring speed was set to 750 rpm. The association constant (Ka), the enthalpy of binding (ΔH), and the binding stoichiometry (N) were estimated through nonlinear least-squares regression of the experimental data employing a single-ligand binding site model implemented in Origin 7.0 (OriginLab, Northampton, MA). The dissociation constant (Kd), the free energy change (ΔG), and the entropy change (ΔS) were obtained from basic thermodynamic relationships.
Since hAIF binds DNA unspecifically, a 0.5 mM dsDNA sample was prepared from 1 mM solutions of HPLC-purified forward and a reverse complementary 15-bp oligonucleotides (5′- GGT TAG TTA TGC GCG -3′; randomly designed) synthetized by Integrated DNA Technologies. The pair of oligonucleotides was mixed at an equimolar ratio and annealed by heating 1 min at 99°C and performing a 3 h temperature scanning from 95 to 25°C, decreasing 1°C each 3 min. 0.5 mM dsDNA stock solutions were obtained.
Take “WT: wild-type human apoptosis-inducing factor, soluble form hAIF∆1-101 (UniProtKB O95831); ox = oxidized, CTC = NADH-reduced charge transfer complex”: the “-TΔS” value is given as -12.4 kcal/mol, the ΔG is on record as -7.6 kcal/mol and the ΔH was determined as 4.8 kcal/mol.
Take “W196A: W196A site-directed mutant of hAIF∆1-101; ox = oxidized, CTC = charge transfer complex with NAD+”: the “-TΔS” value is recorded as -22.0 kcal/mol, the ΔG is given as -6.9 kcal/mol and the ΔH is listed as 15.0 kcal/mol.
Take “W196Y: W196Y site-directed mutant of hAIF∆1-101; ox = oxidized, CTC = charge transfer complex with NAD+”: the “-TΔS” value is reported as -26.0 kcal/mol, the ΔG was -6.8 kcal/mol and the ΔH was found to be 19.2 kcal/mol.
